Measurements: publication PMC11989534
No constants are given. Whether binding was seen depends on the method and setting. Binding seen in cells or lysates may run through a third protein. Here binding means that the protein was enriched with, or labelled near, the bait; the list need not be complete.

Molecular target: CPK-related kinase 5 fused with a YFP tag (CRK5-YFP) (Arabidopsis thaliana)
Test: affinity purification with mass spectrometry; IP-MS: lysate of 10-d-old 35S::CRK5-YFP transgenic seedlings (10 mM HEPES pH 7.5, 100 mM NaCl, 1 mM EDTA, 10% glycerol, 1% TritonX-100) incubated with anti-GFP beads 3 h at 4 °C, washed five times; Orbitrap Fusion Lumos; 35S::YFP in Col-0 as control

Row | binding | Binder
1 | binds | sugar transport protein 1 (STP1) (protein, UniProt P23586 1-522) MPAGGFVVGDGQKAYPGKLTPFVLFTCVVAAMGGLIFGYDIGISGGVTSMPSFLKRFFPSVYRKQQEDASTNQYCQYDSPTLTMFTSSLYLAALISSLVASTVTRKFGRRLSMLFGGILFCAGALINGFAKHVWMLIVGRILLGFGIGFANQAVPLYLSEMAPYKYRGALNIGFQLSITIGILVAEVLNYFFAKIKGGWGWRLSLGGAVVPALIITIGSLVLPDTPNSMIERGQHEEAKTKLRRIRGVDDVSQEFDDLVAASKESQSIEHPWRNLLRRKYRPHLTMAVMIPFFQQLTGINVIMFYAPVLFNTIGFTTDASLMSAVVTGSVNVAATLVSIYGVDRWGRRFLFLEGGTQMLICQAVVAACIGAKFGVDGTPGELPKWYAIVVVTFICIYVAGFAWSWGPLGWLVPSEIFPLEIRSAAQSITVSVNMIFTFIIAQIFLTMLCHLKFGLFLVFAFFVVVMSIFVYIFLPETKGIPIEEMGQVWRSHWYWSRFVEDGEYGNALEMGKNSNQAGTKHV
2 | binds | somatic embryogenesis receptor kinase 4 (SERK4) (receptor, UniProt Q9SKG5 34-620) DALTQLKNSLSSGDPANNVLQSWDATLVTPCTWFHVTCNPENKVTRVDLGNAKLSGKLVPELGQLLNLQYLELYSNNITGEIPEELGDLVELVSLDLYANSISGPIPSSLGKLGKLRFLRLNNNSLSGEIPMTLTSVQLQVLDISNNRLSGDIPVNGSFSLFTPISFANNSLTDLPEPPPTSTSPTPPPPSGGQMTAAIAGGVAAGAALLFAVPAIAFAWWLRRKPQDHFFDVPAEEDPEVHLGQLKRFTLRELLVATDNFSNKNVLGRGGFGKVYKGRLADGNLVAVKRLKEERTKGGELQFQTEVEMISMAVHRNLLRLRGFCMTPTERLLVYPYMANGSVASCLRERPEGNPALDWPKRKHIALGSARGLAYLHDHCDQKIIHRDVKAANILLDEEFEAVVGDFGLAKLMNYNDSHVTTAVRGTIGHIAPEYLSTGKSSEKTDVFGYGVMLLELITGQKAFDLARLANDDDIMLLDWVKEVLKEKKLESLVDAELEGKYVETEVEQLIQMALLCTQSSAMERPKMSEVVRMLEGDGLAERWEEWQKEEMPIHDFNYQAYPHAGTDWLIPYSNSLIENDYPSGPR
3 | binds | CPK-related kinase 1 (CRK1) (enzyme, UniProt O80673 1-576) MGICHGKPVEQQSKSLPVSGETNEAPTNSQPPAKSSGFPFYSPSPVPSLFKSSPSVSSSVSSTPLRIFKRPFPPPSPAKHIRAFLARRYGSVKPNEVSIPEGKECEIGLDKSFGFSKQFASHYEIDGEVGRGHFGYTCSAKGKKGSLKGQEVAVKVIPKSKMTTAIAIEDVSREVKMLRALTGHKNLVQFYDAFEDDENVYIVMELCKGGELLDKILQRGGKYSEDDAKKVMVQILSVVAYCHLQGVVHRDLKPENFLFSTKDETSPLKAIDFGLSDYVKPDERLNDIVGSAYYVAPEVLHRTYGTEADMWSIGVIAYILLCGSRPFWARTESGIFRAVLKAEPNFEEAPWPSLSPEAVDFVKRLLNKDYRKRLTAAQALCHPWLVGSHELKIPSDMIIYKLVKVYIMSTSLRKSALAALAKTLTVPQLAYLREQFTLLGPSKNGYISMQNYKTAILKSSTDAMKDSRVFDFVHMISCLQYKKLDFEEFCASALSVYQLEAMETWEQHARRAYELFEKDGNRPIMIEELASELGLGPSVPVHVVLQDWIRHSDGKLSFLGFVRLLHGVSSRTLQKA
